Experiment: physchem
Conditions: octanol/water, pH 7.4

## CC(C)(C)OC(=O)N1CCN(c2ncc(OCc3ccc(S(C)(=O)=O)cc3)cn2)C(C)(C)C1
  logD: > 3.6
